{
  "source": "patent US12338279B2",
  "about": "“Selective and potent inhibitory antibodies of myostatin activation” (SCHOLAR ROCK, INC., priority 2022, dated 2025)",
  "test_system": "human pro-myostatin",
  "assay": "SEC-MALS binding stoichiometry",
  "settings": "MALS observed weight",
  "data": [
    {"molecule": "Ab123 Fab: Ab123 Fab fragment (antibody) VH: EVQLVESGGGLVQPGGSLRLSCAASGFTFSKYDMSWVRQAPGKGLELVASISSSGGTRYYPDSVKGRFTISRDNAKNSLYLQMNSLRAEDTAVYYCAKDLWVASPGYGMDVWGQGTTVTVSS light: DIVMTQSPLSLPVTPGEPASISCRSSQSLLHSSGHNYLHWYLQKPGQSPQLLIYLGSIRAPGVPDRFSGSGSGTDFTLKISRVEAEDVGVYYCMQALLNPPTFGGGTKVEIKRTVAAPSVFIFPPSDEQLKSGTASVVCLLNNFYPREAKVQWKVDNALQSGNSQESVTEQDSKDSTYSLSSTLTLSKADYEKHKVYACEVTHQGLSSPVTKSFNRGEC", "values": [
      {"measurement": "Observed Molecular Weight (kDa) of Fab:pro-myostatin complex", "value": 137.5, "unit": "kDa"}
    ]}
  ]
}
